Test: Dyeing of hair switches with TGase substrate, permanent colour change by chromameter
Design: species or system human
Settings: blonde hair, four applications, after boiling water wash

Texas Red-Cadaverine [TRC]
Total colour change (ΔE) (pre-treatment none, 10 mM DTT): 29.6
Total colour change (ΔE) (pre-treatment none, no DTT): 22.6
Total colour change (ΔE) (pre-treatment persulphate, 10 mM DTT): 26.7
Total colour change (ΔE) (pre-treatment persulphate, no DTT): 29.0
